Measured values as given in article PMC10870664.
Results are given in words; binding and its absence hold for the method and conditions named. Binding seen in cells or lysates may run through a third protein. Some binding calls cover weakened binding; strength is not graded here.

Tests used:
[1] = molecular target: full-length p62 with a flag tag (HOMO-SQSTM1 -FLAG/His in plent) (human) (UniProt Q13501); assay: co-IP; 293 T cells transfected for 48 h with pcDNA3.1, full-length p62-FLAG/His, △PB1 or △UBA; lysate precipitated with anti-flag antibody, western blot for FN1 and LAMC2
[2] = molecular target: SQSTM1/p62 (human (endogenous in HUVEC)) (UniProt Q13501); assay: co-IP; HUVEC lysate (IP lysis buffer with protease inhibitor) incubated overnight at 4 °C with anti-p62 antibody or rabbit IgG, protein agarose beads, four washes with PBS, western blot for FN1 and LAMC2

B1: Lamininγ2 (protein, UniProt Q13753 22-1193)
chain: TSRREVCDCNGKSRQCIFDRELHRQTGNGFRCLNCNDNTDGIHCEKCKNGFYRHRERDRCLPCNCNSKGSLSARCDNSGRCSCKPGVTGARCDRCLPGFHMLTDAGCTQDQRLLDSKCDCDPAGIAGPCDAGRCVCKPAVTGERCDRCRSGYYNLDGGNPEGCTQCFCYGHSASCRSSAEYSVHKITSTFHQDVDGWKAVQRNGSPAKLQWSQRHQDVFSSAQRLDPVYFVAPAKFLGNQQVSYGQSLSFDYRVDRGGRHPSAHDVILEGAGLRITAPLMPLGKTLPCGLTKTYTFRLNEHPSNNWSPQLSYFEYRRLLRNLTALRIRATYGEYSTGYIDNVTLISARPVSGAPAPWVEQCICPVGYKGQFCQDCASGYKRDSARLGPFGTCIPCNCQGGGACDPDTGDCYSGDENPDIECADCPIGFYNDPHDPRSCKPCPCHNGFSCSVMPETEEVVCNNCPPGVTGARCELCADGYFGDPFGEHGPVRPCQPCQCNNNVDPSASGNCDRLTGRCLKCIHNTAGIYCDQCKAGYFGDPLAPNPADKCRACNCNPMGSEPVGCRSDGTCVCKPGFGGPNCEHGAFSCPACYNQVKIQMDQFMQQLQRMEALISKAQGGDGVVPDTELEGRMQQAEQALQDILRDAQISEGASRSLGLQLAKVRSQENSYQSRLDDLKMTVERVRALGSQYQNRVRDTHRLITQMQLSLAESEASLGNTNIPASDHYVGPNGFKSLAQEATRLAESHVESASNMEQLTRETEDYSKQALSLVRKALHEGVGSGSGSPDGAVVQGLVEKLEKTKSLAQQLTREATQAEIEADRSYQHSLRLLDSVSRLQGVSDQSFQVEEAKRIKQKADSLSSLVTRHMDEFKRTQKNLGNWKEEAQQLLQNGKSGREKSDQLLSRANLAKSRAQEALSMGNATFYEVESILKNLREFDLQVDNRKAEAEEAMKRLSYISQKVSDASDKTQQAERALGSAAADAQRAKNGAGEALEISSEIEQEIGSLNLEANVTADGALAMEKGLASLKSEMREVEGELERKELEFDTNMDAVQMVITEAQKVDTRAKNAGVTIQDTLNTLDGLLHLMDQPLSVDEEGLVLLEQKLSRAKTQINSQLRPMMSELEERARQQRGHLHLLETSIDGILADVKNLENIRDNLPPGCYNTQALEQQ
- binding [1]: binds
- binding [2]: binds
